# The supplement of paper PMC12595434, “Development of retinoid nuclear receptor pathway antagonists through targeting aldehyde dehydrogenase 1A3” (iScience, 2025)
# Amino acid sequences for entries named in this document (tags omitted). A change or cut given only in a name is not applied to a line headed by its entry.
# UniProt P45985: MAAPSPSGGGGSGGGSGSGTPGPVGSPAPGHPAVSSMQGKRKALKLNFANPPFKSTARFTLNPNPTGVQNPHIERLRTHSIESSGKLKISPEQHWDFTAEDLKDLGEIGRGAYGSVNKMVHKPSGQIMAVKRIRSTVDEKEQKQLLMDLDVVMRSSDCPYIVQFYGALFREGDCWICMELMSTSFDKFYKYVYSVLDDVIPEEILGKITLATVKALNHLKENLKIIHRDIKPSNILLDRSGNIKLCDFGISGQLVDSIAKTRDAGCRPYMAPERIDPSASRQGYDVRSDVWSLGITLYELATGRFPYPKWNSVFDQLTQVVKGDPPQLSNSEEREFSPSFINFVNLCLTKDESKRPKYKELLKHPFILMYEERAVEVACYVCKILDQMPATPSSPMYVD
# UniProt P41227: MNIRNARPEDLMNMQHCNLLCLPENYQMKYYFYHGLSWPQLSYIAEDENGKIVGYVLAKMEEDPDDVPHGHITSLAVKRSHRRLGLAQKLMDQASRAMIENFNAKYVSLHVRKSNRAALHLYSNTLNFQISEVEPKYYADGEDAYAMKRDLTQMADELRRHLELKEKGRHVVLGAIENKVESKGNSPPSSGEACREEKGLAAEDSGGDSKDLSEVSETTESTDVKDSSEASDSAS
# UniProt P40763, whole entry: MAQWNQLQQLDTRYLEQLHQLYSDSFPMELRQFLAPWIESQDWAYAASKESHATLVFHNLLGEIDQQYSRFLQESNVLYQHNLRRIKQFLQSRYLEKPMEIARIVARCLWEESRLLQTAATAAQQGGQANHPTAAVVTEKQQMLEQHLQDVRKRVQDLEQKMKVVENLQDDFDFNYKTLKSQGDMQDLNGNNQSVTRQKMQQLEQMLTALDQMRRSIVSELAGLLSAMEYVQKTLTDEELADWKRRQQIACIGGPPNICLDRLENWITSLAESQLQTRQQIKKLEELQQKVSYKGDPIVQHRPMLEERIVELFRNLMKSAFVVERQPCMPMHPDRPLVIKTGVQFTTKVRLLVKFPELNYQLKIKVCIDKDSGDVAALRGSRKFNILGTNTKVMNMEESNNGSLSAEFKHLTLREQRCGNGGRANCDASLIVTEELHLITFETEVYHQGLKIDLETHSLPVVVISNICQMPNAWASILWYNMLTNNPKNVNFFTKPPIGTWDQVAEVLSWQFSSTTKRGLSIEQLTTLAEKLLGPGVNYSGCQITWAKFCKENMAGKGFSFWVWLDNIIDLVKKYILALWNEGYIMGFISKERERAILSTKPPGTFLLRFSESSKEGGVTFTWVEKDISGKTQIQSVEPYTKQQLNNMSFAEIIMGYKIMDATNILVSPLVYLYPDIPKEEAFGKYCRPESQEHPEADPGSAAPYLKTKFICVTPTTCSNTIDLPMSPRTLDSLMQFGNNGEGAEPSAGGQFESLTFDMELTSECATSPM
# UniProt P42773: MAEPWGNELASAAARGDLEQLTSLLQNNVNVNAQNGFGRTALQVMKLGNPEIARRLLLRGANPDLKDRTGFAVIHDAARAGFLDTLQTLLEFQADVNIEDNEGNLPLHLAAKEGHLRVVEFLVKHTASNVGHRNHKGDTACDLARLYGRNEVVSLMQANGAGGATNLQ
# UniProt P50897: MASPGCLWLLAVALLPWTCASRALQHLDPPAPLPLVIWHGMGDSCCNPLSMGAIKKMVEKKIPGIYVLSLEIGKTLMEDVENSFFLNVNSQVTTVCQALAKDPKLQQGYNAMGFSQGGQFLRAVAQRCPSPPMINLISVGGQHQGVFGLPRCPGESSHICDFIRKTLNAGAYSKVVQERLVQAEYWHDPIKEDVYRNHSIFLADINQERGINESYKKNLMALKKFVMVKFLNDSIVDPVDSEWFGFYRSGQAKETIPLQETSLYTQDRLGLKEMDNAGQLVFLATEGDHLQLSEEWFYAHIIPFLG
# UniProt P38159: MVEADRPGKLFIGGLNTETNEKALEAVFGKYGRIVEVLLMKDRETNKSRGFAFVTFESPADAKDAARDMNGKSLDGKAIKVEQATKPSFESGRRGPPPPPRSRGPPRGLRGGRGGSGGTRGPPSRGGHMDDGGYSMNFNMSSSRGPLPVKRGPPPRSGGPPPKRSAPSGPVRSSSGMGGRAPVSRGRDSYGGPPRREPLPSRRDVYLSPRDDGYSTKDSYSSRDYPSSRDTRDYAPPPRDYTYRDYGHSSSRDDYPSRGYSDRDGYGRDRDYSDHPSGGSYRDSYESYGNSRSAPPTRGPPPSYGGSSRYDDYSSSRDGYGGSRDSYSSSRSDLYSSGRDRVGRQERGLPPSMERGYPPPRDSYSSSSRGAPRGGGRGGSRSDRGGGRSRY
# UniProt P48643, whole entry: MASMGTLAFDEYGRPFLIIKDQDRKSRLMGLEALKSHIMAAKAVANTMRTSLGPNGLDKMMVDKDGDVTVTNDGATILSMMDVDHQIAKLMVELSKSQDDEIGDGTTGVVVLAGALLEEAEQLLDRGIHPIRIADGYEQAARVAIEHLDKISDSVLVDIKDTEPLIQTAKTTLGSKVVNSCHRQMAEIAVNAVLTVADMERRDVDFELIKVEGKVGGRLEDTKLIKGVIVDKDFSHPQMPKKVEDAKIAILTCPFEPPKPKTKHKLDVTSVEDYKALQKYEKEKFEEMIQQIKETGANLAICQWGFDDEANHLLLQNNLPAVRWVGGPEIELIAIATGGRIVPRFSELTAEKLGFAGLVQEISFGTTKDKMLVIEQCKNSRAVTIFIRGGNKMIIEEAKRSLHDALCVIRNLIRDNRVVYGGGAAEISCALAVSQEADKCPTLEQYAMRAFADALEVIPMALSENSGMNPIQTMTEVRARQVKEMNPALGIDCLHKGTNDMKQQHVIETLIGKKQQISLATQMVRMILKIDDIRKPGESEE
# UniProt P49959: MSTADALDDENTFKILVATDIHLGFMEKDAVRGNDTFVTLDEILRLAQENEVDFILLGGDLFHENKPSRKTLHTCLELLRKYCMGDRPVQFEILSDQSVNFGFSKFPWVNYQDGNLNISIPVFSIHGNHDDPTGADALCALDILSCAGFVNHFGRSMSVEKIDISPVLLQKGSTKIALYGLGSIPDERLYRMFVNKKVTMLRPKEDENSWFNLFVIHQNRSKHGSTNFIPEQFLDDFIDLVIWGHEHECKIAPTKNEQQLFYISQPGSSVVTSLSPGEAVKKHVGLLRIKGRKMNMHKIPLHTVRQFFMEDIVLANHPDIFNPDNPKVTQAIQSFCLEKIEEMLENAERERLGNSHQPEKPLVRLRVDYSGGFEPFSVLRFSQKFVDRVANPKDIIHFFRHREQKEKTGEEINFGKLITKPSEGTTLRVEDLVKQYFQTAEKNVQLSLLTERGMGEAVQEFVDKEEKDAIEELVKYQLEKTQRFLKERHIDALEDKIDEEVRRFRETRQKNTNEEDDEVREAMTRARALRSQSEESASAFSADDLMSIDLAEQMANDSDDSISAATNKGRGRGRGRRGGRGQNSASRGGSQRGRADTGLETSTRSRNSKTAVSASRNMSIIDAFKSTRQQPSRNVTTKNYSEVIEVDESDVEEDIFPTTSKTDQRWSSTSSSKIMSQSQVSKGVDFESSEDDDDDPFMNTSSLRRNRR
# UniProt P40926: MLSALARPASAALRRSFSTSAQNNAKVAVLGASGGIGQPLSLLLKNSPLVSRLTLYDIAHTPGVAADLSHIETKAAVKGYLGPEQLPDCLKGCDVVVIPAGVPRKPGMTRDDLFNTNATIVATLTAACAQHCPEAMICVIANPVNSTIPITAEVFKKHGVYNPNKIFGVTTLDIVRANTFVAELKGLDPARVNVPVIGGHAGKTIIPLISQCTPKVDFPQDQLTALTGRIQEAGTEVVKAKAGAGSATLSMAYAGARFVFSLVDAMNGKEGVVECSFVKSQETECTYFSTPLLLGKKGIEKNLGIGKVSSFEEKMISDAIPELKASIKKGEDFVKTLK
# UniProt P49757: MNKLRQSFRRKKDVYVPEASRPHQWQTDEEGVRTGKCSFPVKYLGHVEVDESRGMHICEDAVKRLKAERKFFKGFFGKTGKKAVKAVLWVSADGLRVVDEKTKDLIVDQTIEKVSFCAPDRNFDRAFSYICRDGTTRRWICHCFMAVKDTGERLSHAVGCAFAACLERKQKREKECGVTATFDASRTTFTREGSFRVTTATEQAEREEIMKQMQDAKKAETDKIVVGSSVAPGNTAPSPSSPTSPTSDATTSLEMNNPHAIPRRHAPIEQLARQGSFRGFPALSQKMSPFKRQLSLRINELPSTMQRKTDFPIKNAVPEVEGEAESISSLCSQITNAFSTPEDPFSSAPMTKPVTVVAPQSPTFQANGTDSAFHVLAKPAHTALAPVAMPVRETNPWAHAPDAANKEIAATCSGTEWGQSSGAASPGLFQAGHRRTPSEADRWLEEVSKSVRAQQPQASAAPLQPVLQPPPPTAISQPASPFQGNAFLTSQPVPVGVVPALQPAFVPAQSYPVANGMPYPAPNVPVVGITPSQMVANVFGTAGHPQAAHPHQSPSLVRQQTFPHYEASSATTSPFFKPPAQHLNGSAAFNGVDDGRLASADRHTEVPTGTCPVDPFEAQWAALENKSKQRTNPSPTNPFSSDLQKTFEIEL
# UniProt P37198: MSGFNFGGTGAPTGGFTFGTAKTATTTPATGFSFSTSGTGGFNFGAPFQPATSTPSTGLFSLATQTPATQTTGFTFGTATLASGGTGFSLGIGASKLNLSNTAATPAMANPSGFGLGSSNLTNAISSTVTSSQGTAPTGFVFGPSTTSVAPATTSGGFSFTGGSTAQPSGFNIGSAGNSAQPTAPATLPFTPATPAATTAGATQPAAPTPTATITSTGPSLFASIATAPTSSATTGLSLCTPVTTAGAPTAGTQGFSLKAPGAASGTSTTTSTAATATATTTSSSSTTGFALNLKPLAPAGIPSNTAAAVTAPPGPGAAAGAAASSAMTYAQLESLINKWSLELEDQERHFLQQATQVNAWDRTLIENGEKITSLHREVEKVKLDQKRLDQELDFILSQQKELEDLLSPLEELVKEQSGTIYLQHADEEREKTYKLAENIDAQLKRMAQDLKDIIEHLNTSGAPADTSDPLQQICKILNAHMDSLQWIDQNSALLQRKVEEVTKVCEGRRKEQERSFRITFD
# UniProt P43155: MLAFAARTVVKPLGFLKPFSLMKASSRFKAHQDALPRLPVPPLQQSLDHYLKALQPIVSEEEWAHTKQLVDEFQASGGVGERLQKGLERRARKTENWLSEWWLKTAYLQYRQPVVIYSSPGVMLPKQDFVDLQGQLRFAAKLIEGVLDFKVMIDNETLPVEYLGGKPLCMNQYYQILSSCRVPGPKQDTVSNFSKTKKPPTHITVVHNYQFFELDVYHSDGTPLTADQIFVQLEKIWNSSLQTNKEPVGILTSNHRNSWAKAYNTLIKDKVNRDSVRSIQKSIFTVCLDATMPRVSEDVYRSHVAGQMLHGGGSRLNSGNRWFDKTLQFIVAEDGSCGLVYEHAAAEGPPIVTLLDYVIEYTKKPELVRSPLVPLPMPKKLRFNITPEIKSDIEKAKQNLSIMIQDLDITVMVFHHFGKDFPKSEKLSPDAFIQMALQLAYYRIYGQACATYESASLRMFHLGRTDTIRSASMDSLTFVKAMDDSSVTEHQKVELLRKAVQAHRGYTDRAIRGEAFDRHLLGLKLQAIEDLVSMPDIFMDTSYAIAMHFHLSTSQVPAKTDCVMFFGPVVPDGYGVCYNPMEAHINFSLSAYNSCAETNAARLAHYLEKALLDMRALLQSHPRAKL
# UniProt P42226: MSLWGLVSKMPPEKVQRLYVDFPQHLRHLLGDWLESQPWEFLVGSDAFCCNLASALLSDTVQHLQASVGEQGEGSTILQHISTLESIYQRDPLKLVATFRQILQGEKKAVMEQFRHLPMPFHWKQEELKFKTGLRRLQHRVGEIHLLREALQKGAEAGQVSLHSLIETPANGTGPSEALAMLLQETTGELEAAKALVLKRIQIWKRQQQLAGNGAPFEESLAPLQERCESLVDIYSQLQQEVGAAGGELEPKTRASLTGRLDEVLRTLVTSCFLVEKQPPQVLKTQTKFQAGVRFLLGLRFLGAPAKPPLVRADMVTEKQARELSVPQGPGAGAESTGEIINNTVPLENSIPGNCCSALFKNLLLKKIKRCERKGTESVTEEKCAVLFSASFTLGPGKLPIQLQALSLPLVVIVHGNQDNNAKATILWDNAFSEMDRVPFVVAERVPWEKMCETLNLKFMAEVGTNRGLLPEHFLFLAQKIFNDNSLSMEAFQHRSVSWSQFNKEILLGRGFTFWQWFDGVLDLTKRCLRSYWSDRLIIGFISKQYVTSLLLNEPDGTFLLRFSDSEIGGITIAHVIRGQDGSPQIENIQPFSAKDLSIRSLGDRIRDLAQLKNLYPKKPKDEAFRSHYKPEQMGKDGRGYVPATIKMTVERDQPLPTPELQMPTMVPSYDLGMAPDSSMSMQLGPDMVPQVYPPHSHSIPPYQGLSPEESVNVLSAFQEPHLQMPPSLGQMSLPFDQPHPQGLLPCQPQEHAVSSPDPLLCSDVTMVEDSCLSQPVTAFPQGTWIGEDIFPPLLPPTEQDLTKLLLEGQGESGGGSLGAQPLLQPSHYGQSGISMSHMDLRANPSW
# The list shows a part of the results. This is a noisy data set.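 Tm was set to 64 °C where no melting was found, and many curves are irregular.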
# Compound: CCc1cnccc1C(=O)Nc1cc2c(cc1F)NC(=O)CC2
# Assay: melting temperature shift (DMSO Tm minus MBE1-treated Tm) in cellular thermal proteome profiling; higher = less thermal stabilization by MBE1 (negative = stabilized by MBE1)
# Details: A375
Target,melting temperature shift (MBE1 concentration: 100 nM),melting temperature shift (MBE1 concentration: 1 uM)
UniProt P45985,0.763 °C,0.348 °C
UniProt P48729,-0.208 °C,0.122 °C
CAPG (UniProt P40121),0.427 °C,-0.488 °C
NAA10 (UniProt P41227),-0.389 °C,-0.201 °C
STAT3 (UniProt P40763),-1.13 °C,-0.972 °C
UniProt P42773,-0.93 °C,-3.01 °C
PPT1 (UniProt P50897),-2.08 °C,-2.21 °C
SKIV2L2 (UniProt P42285),0.488 °C,-0.0427 °C
RBMX (UniProt P38159),-1.54 °C,-2.27 °C
NAMPT (UniProt P43490),-0.641 °C,-0.104 °C
CCT5 (UniProt P48643),-0.91 °C,0.563 °C
MRE11A (UniProt P49959),-1.81 °C,1.18 °C
MDH2 (UniProt P40926),-0.889 °C,-0.354 °C
CAMLG (UniProt P49069),-2.2 °C,-2.33 °C
UniProt P51688,-4 °C,1.32 °C
SERPINH1 (UniProt P50454),-0.812 °C,0.704 °C
NUMB (UniProt P49757),0.495 °C,0.611 °C
UniProt P38432,-0.826 °C,-0.275 °C
FASN (UniProt P49327),-0.214 °C,0.446 °C
NUP62 (UniProt P37198),1.32 °C,0.946 °C
CRAT (UniProt P43155),-0.765 °C,-0.141 °C
STAT6 (UniProt P42226),-0.748 °C,-0.339 °C
CCT6A (UniProt P40227),-0.984 °C,-0.96 °C
EIF2B2 (UniProt P49770),-0.107 °C,-0.0469 °C
UniProt P41162,-1.61 °C,-0.269 °C

# Taken from above:
# SKIV2L2 (UniProt P42285) – melting temperature shift (MBE1 concentration: 1 uM): -0.0427 °C
# STAT6 (UniProt P42226) – melting temperature shift (MBE1 concentration: 1 uM): -0.339 °C
